Counter-ions that a name gives are not always drawn. Some of the results follow. The data scatter; read single values as rough.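 Yeast growth was read as optical density at 600 nm. The two-hybrid strains grew without histidine, so growth needed the Pex3–Pex19 binding; a compound counted as trypanosome-selective if it cut growth of the trypanosome-pair strain by more than 65% and the human-pair strain by less than 65%.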
Experiments:
[1] = tested on: Saccharomyces cerevisiae HF7c pdr5Δ; experiment: general growth inhibition of yeast HF7c pdr5Δ in -Leu -Trp medium, relative to DMSO; higher = stronger general growth inhibition; details: 100 µM; 24 h
[2] = tested on: human PEX3-PEX19 interaction (yeast two-hybrid); experiment: growth inhibition of yeast two-hybrid strain reporting HsPex3-HsPex19 interaction, relative to DMSO; higher = stronger inhibition of human Pex3-Pex19 interaction / growth; details: 100 µM; 24 h; 3-aminotriazole 10 mM
[3] = tested on: T. brucei Pex3-Pex19 interaction (yeast two-hybrid); experiment: growth inhibition of yeast two-hybrid strain reporting TbPex3-TbPex19 interaction, relative to DMSO; higher = stronger inhibition of T. brucei Pex3-Pex19 interaction / growth; details: 100 µM; 24 h

Compound | general growth inhibition [1] [%] | growth inhibition [2] [%] | growth inhibition [3] [%]
CC1(C)CCC(NC(=O)[C@@H](N)CCC(=O)O)CC1 | 51.7 | 51.7 | 73.8
O=C1NC(=O)/C(=C\c2ccc3nccnc3c2)S1 | 44.7 | 37.3 | 53.1
COc1ccccc1CNC1CCCNC1c1ccccc1 (configuration not stated) | 51.3 | 50.5 | 62.6
CC[N+](CC)(CC)CCOc1cccc(OCC[N+](CC)(CC)CC)c1OCC[N+](CC)(CC)CC [Gallamine triethiodide] | 18 | 36.9 | 60.7
N[C@@H]1[C@H]2CN(c3nc4c(cc3F)c(=O)c(C(=O)O)cn4-c3ccc(F)cc3F)C[C@@H]12 [Trovafloxacin mesylate] | 47.6 | 39.5 | 63
Nc1ncn([C@@H]2O[C@H](CO)[C@@H](O)[C@H]2O)c(=O)n1 [5-azacytidine] | 46.2 | 46.2 | 56.9
CO[C@H]1O[C@@H]2O[C@@]3(C)CC[C@H]4[C@H](C)CC[C@@H]([C@H]1C)[C@@]24OO3 [Artemether] | 43.6 | 37.6 | 48.2
COC(=O)C1=C(C)NC(C)=C(C(=O)OC)C1c1ccccc1[N+](=O)[O-] [Nifedipine] | 60.3 | 52 | 58.6
CN(CCCOc1ccc(Cc2ccccc2)cc1)CCC(=O)O | 54 | 39.5 | 65.8
O=c1[nH]c(=O)n(C2CCCO2)cc1F (configuration not stated) [Tegafur] | 45.2 | 43.4 | 67.1
C[C@]12C=CC(=O)C=C1CC[C@H]1[C@@H]3C[C@@H](O)[C@](O)(C(=O)CO)[C@@]3(C)C[C@H](O)[C@@]12F [Triamcinolone] | 54.1 | 53.9 | 62.1
O=C1NCC2(CCN(CCc3ccccc3)CC2)O1 [Fenspiride hydrochloride] | 30.7 | 43.5 | 62.6
Oc1cc2c(cc1O)C(c1ccccc1)CNCC2 (racemic) | 34.7 | 33.4 | 59
Cn1c(=O)c2c(ncn2C)n(C)c1=O [Caffeine] | 30.1 | 36.6 | 57.5

Part of the list above in order of heavy-atom count, low to high:
Compound | general growth inhibition [1] [%] | growth inhibition [2] [%] | growth inhibition [3] [%]
O=c1[nH]c(=O)n(C2CCCO2)cc1F (configuration not stated) [Tegafur] | 45.2 | 43.4 | 67.1
COc1ccccc1CNC1CCCNC1c1ccccc1 (configuration not stated) | 51.3 | 50.5 | 62.6
CN(CCCOc1ccc(Cc2ccccc2)cc1)CCC(=O)O | 54 | 39.5 | 65.8
